Laboratory results: PubChem BioAssay AID1224826 (NIAID, 2016)

Purpose: 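Regulators of Tlr4 signalling leading to Tnf-alpha expression in macrophages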 (primary screen)
System: RAW264.7 G9 macrophages from mouse bearing reporters for p65 (GFP) and the Tnf promoter (mCherry)
Knock-down reagent: siRNA pool against mouse genes, 100 nM
Time to read-out: 16 h of LPS stimulation, after 2 days of siRNA transfection
Conditions: bacterial lipopolysaccharide (Salmonella minnesota R595), 10 ng/ml
Measurement: 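Nuclear mCherry signal of the Tnf promoter reporter measured by imaging after background removal, scaled to each plate median and turned into robust z-scores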
Reading the numbers: Tnf reporter robust z-score: higher = stronger Tnf promoter reporter signal after LPS; Tnf reporter intensity: higher = stronger Tnf promoter reporter signal
Hit rule: 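Called active when robust z-score is at most -1.3, matching the median of the Tlr4 knock-down control, or over 3; control wells and wells with under 50 cells never active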
Calls: active = Tnf reporter clearly lowered or raised; inactive = no clear change in Tnf reporter
The deposit covers about 17,000 reagents; this is an unselected part. In the full data, about 1,110 (6.6%) are marked active. 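Active means lowered or raised reporter signal; replicate intensities are raw and not normalised per plate.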

target	Tnf reporter robust z-score	fewer than 50 cells in well	Tnf reporter intensity, replicate 1	Tnf reporter intensity, replicate 2	call
Stmn3 (stathmin-like 3)	-0.71	enough cells in well	205	170	inactive
Col5a2 (collagen, type V, alpha 2)	0.07	enough cells in well	257	208	inactive
Or5b113 (olfactory receptor family 5 subfamily B member 113)	0.34	enough cells in well	171	155	inactive
Fam78b (family with sequence similarity 78, member B)	0.65	enough cells in well	185	201	inactive
Apmap (adipocyte plasma membrane associated protein)	3.24	enough cells in well	453	133	active
Tmem205 (transmembrane protein 205)	-1.21	enough cells in well	116	51.8	inactive
Rhbdd1 (rhomboid domain containing 1)	1.23	enough cells in well	290	65	inactive
Rhpn2 (rhophilin, Rho GTPase binding protein 2)	0.61	enough cells in well	162	147	inactive
Fgfr2 (fibroblast growth factor receptor 2)	0	enough cells in well	162	187	inactive
Wnt5b (WNT family member 5B)	-0.82	enough cells in well	137	201	inactive
Zfp955a (zinc finger protein 955A)	1.69	enough cells in well	213	176	inactive
Gjb2 (gap junction protein, beta 2)	-0.68	enough cells in well	241	141	inactive
Ppm1a (protein phosphatase 1A, magnesium dependent, alpha isoform)	2.07	enough cells in well	414	329	inactive
Flvcr1 (feline leukemia virus subgroup C cellular receptor 1)	-0.61	enough cells in well	151	141	inactive
Or10n1 (olfactory receptor family 10 subfamily N member 1)	-0.64	enough cells in well	159	82.4	inactive
Slc22a7	0.72	enough cells in well	125	86.9	inactive
Sorcs3 (sortilin-related VPS10 domain containing receptor 3)	-0.55	enough cells in well	198	200	inactive
Slc25a24	1.29	enough cells in well	144	115	inactive
Gdpgp1 (GDP-D-glucose phosphorylase 1)	-0.36	enough cells in well	167	131	inactive
Aimp2	1.5	enough cells in well	337	165	inactive
Kif24 (kinesin family member 24)	0.6	enough cells in well	184	190	inactive
Ajuba (ajuba LIM protein)	0.75	enough cells in well	235	169	inactive
Fibp	-0.49	enough cells in well	212	198	inactive
Frat2 (frequently rearranged in advanced T cell lymphomas 2)	-0.08	enough cells in well	267	214	inactive
Xkr5 (XK related 5)	-0.87	enough cells in well	124	104	inactive
Tfap4 (transcription factor AP4)	-0.53	enough cells in well	140	143	inactive
Fbxo46 (F-box protein 46)	0.05	enough cells in well	224	157	inactive
Utf1 (undifferentiated embryonic cell transcription factor 1)	-0.18	enough cells in well	202	233	inactive
Srsf2 (serine and arginine-rich splicing factor 2)	-0.7	enough cells in well	205	171	inactive
Ikbkb (inhibitor of kappaB kinase beta)	-1.11	enough cells in well	123	99	inactive
Mrgprb8 (MAS-related GPR, member B8)	0.25	enough cells in well	276	98.6	inactive
Cd37 (CD37 antigen)	-0.36	enough cells in well	226	173	inactive
Msx3 (msh homeobox 3)	3.04	enough cells in well	351	274	active
Ghitm (growth hormone inducible transmembrane protein)	1.7	enough cells in well	319	262	inactive
Vps41 (VPS41 HOPS complex subunit)	0.81	enough cells in well	117	142	inactive
E2f3 (E2F transcription factor 3)	1.57	enough cells in well	336	333	inactive
Or9g4 (olfactory receptor family 9 subfamily G member 4)	0.59	enough cells in well	234	173	inactive
Rubcn	0.48	enough cells in well	247	117	inactive
Serpinb6c (serine (or cysteine) peptidase inhibitor, clade B, member 6c)	0.2	enough cells in well	85.8	132	inactive
Pfn1 (profilin 1)	0.49	enough cells in well	271	220	inactive
Rab30 (RAB30, member RAS oncogene family)	-0.22	enough cells in well	251	213	inactive
Stap1 (signal transducing adaptor family member 1)	-0.34	enough cells in well	165	131	inactive
Ccr10 (C-C motif chemokine receptor 10)	0.1	enough cells in well	217	314	inactive
Vrk3 (vaccinia related kinase 3)	0.16	enough cells in well	170	151	inactive
Ccdc121rt1 (coiled-coil domain containing 121, retrogene 1)	0.84	enough cells in well	252	220	inactive
Idh1 (isocitrate dehydrogenase 1 (NADP+), soluble)	-0.5	enough cells in well	178	96.5	inactive
Ccdc93 (coiled-coil domain containing 93)		fewer than 50 cells per well; well left out of calls	229	72.8	inactive
Gm5082 (predicted gene 5082)	1.35	enough cells in well	272	198	inactive
Tmem242 (transmembrane protein 242)	1.48	enough cells in well	136	227	inactive
Tmem41b (transmembrane protein 41B)	1.01	enough cells in well	258	203	inactive
Foxd2 (forkhead box D2)	0.13	enough cells in well	315	202	inactive
Klre1 (killer cell lectin-like receptor family E member 1)	-0.88	enough cells in well	148	84	inactive
Chd4 (chromodomain helicase DNA binding protein 4)	-1.29	enough cells in well	150	106	inactive
Tsc1 (TSC complex subunit 1)	1.21	enough cells in well	362	278	inactive
Pkdcc (protein kinase domain containing, cytoplasmic)	0.37	enough cells in well	234	166	inactive
Trim14 (tripartite motif-containing 14)	0.18	enough cells in well	286	193	inactive
Fmo1 (flavin containing monooxygenase 1)	1.44	enough cells in well	405	328	inactive
Fcer2a (Fc receptor, IgE, low affinity II, alpha polypeptide)	-0.26	enough cells in well	177	245	inactive

Active calls, of those listed so far:
target	Tnf reporter robust z-score	fewer than 50 cells in well	Tnf reporter intensity, replicate 1	Tnf reporter intensity, replicate 2	call
Apmap (adipocyte plasma membrane associated protein)	3.24	enough cells in well	453	133	active
Msx3 (msh homeobox 3)	3.04	enough cells in well	351	274	active
